Source: BindingDB's records for doi:10.1016/s0028-3908(97)00049-x (Roche Bioscience, 1997)
pKi: −log10 of the molar value.

By UniProt entry, the sequences of proteins in these tests, tags left out.
UniProt P41595, whole entry: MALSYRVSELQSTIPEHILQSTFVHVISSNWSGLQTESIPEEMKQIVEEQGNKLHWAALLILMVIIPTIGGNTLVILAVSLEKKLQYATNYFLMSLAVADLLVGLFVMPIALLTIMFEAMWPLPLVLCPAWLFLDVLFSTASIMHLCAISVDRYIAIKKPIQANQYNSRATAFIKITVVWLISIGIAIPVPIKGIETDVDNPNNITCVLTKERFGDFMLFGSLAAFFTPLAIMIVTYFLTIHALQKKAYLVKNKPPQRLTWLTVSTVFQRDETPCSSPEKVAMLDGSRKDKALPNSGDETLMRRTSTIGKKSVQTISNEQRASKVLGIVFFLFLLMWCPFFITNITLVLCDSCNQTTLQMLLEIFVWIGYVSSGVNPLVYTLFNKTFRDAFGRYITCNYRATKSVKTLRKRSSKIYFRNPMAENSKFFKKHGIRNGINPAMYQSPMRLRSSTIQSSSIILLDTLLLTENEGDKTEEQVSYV

Target: 5-hydroxytryptamine receptor 2B (Homo sapiens, UniProt P41595)

Question: How did the pKi turn out when `CC[C@@H](CO)NC(=O)[C@@H]1C=C2c3cccc4c3c(cn4C)C[C@H]2N(C)C1` was run?
Answer: 8.78
